No constants are given. Whether binding was seen depends on the method and setting. Binding seen in cells or lysates may run through a third protein. A yes stands for co-enrichment or nearness to the bait. Other partners may have been found.
Biological target: T1, Clueless (Clu), endogenous in S2R+ cells (Drosophila (endogenous in S2R+ cells)) (UniProt A1ZAB5)
T1 sequence: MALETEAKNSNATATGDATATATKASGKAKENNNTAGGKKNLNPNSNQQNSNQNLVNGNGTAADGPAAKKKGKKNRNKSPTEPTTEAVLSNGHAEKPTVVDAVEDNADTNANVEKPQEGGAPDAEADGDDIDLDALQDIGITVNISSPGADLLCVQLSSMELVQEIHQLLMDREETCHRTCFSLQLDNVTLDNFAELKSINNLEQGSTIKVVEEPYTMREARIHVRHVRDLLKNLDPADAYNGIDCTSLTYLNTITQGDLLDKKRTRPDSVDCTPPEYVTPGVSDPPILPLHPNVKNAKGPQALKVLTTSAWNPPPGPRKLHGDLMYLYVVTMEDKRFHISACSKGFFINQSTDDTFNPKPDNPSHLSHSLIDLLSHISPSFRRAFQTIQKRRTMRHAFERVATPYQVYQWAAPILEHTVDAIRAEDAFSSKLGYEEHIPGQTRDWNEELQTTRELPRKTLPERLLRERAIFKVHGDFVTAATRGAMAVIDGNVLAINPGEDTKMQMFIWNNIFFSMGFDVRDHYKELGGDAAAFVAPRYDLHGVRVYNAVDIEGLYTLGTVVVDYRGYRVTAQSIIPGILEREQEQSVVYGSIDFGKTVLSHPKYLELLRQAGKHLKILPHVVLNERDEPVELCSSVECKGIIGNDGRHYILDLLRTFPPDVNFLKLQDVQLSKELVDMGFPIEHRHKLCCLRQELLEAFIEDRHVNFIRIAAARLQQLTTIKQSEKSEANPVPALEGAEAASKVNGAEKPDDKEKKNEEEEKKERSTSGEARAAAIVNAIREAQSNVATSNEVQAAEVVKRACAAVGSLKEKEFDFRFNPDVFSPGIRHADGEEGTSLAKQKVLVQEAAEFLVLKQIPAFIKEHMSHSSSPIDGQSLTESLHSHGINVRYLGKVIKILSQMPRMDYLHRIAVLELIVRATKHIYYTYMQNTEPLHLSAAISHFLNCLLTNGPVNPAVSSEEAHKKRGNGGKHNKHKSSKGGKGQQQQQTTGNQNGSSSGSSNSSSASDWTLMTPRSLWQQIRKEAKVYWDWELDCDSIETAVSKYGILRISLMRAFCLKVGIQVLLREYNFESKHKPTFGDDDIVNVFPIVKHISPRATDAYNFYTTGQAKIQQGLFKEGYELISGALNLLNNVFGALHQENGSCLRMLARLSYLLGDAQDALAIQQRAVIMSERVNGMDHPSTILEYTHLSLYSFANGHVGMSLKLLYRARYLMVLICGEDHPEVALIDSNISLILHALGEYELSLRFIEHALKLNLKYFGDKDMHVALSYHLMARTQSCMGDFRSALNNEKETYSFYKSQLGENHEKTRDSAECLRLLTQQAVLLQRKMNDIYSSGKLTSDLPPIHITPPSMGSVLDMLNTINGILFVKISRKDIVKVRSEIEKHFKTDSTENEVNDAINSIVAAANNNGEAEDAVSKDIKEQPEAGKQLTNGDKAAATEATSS
Assay: affinity purification with mass spectrometry; anti-Clu IP from S2R+ cell extract, guinea pig IgG as control; Colloidal Blue bands (~38 kDa and ~30 kDa) cut and analysed by NanoLC-ESI-MS/MS

Protein sequences, listed by entry. Tags and fused reporters are not part of them. Lines headed by an entry give the natural chain unless they say otherwise; changes in a name come on top.
UniProt P46223: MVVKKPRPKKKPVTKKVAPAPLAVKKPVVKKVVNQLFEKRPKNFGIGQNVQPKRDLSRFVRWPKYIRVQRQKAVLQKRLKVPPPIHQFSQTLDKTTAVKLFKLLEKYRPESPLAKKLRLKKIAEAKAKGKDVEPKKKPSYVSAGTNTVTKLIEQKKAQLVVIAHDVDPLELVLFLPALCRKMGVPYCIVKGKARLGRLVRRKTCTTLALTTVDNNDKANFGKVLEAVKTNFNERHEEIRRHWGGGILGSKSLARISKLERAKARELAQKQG

large Ribosomal protein (RpL) 7a, endogenous in S2R+ cells (from UniProt P46223 1-271)
binding: binds

B1: small Ribosomal protein (RpS) 4, endogenous in S2R+ cells (protein, UniProt P41042 1-261)
chain: MARGPKKHLKRLAAPKAWMLDKLGGVFAPRPSTGPHKLRESLPLLIFLRNRLKYALNGAEVTKIVMQRLVKVDGKVRTDPTYPAGYMDVITLEKTGEFFRLVYDVKGRFVIHRISAEEAKYKLCKVKKTQLGAKGVPFLVTHDGRTIRYPDPLIHANDSVQVDIASGKITDYIKFDSGNLCMITGGRNLGRVGTVVNRERHPGSFDIVHIKDSQGHVFATRLTNVFIIGKGNKPYISLPKGKGVKLSIAEERDKRLAAKTH
binding: binds

B2: small Ribosomal protein RpS7, endogenous in S2R+ cells (protein, UniProt Q9VA91 1-194)
chain: MAIGSKIIKPGGSDPDDFEKSIAQALVELEANSDLKPYLRDLHITRAREIEFGSKKAVIIYVPIPQQKVFQKIQIILVRELEKKFSGKHVVVIAERKILPKPTRKARNPLKQKRPRSRTLTAVYDAILEDLVFPAEIVGKRIRVKLDGSQLVKVHLDKNQQTTIEHKVDTFTSVYKKLTGRDVTFEFPDNYLNV
binding: binds
